PubChem BioAssay AID1259254 – NCATS, 2017
The deposit covers about 59,000 reagents; shown is a random part of them. About 1,550 of all reagents (2.6%) were called active. 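G2 share is only a proxy for re-replication; each gene was hit by three separate siRNAs, and active genes were retested.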 Reagents against one gene are numbered here. Further read-outs or replicates are left out here. No sequences are given here. The record does not give: the amount of reagent.

Purpose: 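Genome-wide screen for genes that prevent DNA re-replication in cancer cells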 (primary screen)
Cell system: human HCT116 colorectal cancer cells
Knock-down reagent: single siRNA against human genes
Time to read-out: 3 days
Measured: 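Imaged Hoechst DNA stain sorts each cell into a cycle phase by DNA amount; per plate, G2 fraction set to 0% for non-targeting and 100% for GMNN siRNA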
Scale: G2 robust z-score and G2 cells, % of GMNN control: higher = more G2 cells, more excess DNA replication
Call rule: 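An siRNA counts as active if its G2 robust z-score lies at least 5 MADs above the screen median; here such calls match roughly 38% of GMNN control or more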

target gene	reagent	G2 robust z-score	G2 cells, % of GMNN control	Outcome
UBE2A (GeneID 7319)	1	-0.331	0.637	inactive
UBE2A (GeneID 7319)	2	1.55	13.9	inactive
UBE2A (GeneID 7319)	3	-0.619	-1.39	inactive
NDUFS1 (GeneID 4719)	1	-0.303	0.839	inactive
NDUFS1 (GeneID 4719)	2	-0.833	-2.9	inactive
NDUFS1 (GeneID 4719)	3	0.699	7.88	inactive
BTC (GeneID 685)	1	-1.15	-5.09	inactive
BTC (GeneID 685)	2	-1.07	-4.55	inactive
BTC (GeneID 685)	3	5.17	39.3	active
TAS2R7 (GeneID 50837)	1	6.17	46.4	active
TAS2R7 (GeneID 50837)	2	-0.682	-1.83	inactive
TAS2R7 (GeneID 50837)	3	-1.35	-6.56	inactive
HES7 (GeneID 84667)	1	-0.086	2.36	inactive
HES7 (GeneID 84667)	2	3.09	24.7	inactive
HES7 (GeneID 84667)	3	-0.777	-2.5	inactive
DOLK (GeneID 22845)	1	-1.32	-6.29	inactive
DOLK (GeneID 22845)	2	-0.192	1.61	inactive
DOLK (GeneID 22845)	3	1.02	10.2	inactive
SIRPA (GeneID 140885)	1	-0.405	0.116	inactive
SIRPA (GeneID 140885)	2	0.37	5.57	inactive
SIRPA (GeneID 140885)	3	-1.07	-4.56	inactive
CERS2 (GeneID 29956)	1	2.5	20.6	inactive
CERS2 (GeneID 29956)	2	3.91	30.5	inactive
CERS2 (GeneID 29956)	3	4.3	33.2	inactive
GCGR (GeneID 2642)	1	-0.377	0.315	inactive
GCGR (GeneID 2642)	2	2.14	18.1	inactive
GCGR (GeneID 2642)	3	-0.923	-3.53	inactive
SLC30A8 (GeneID 169026)	1	-0.921	-3.51	inactive
SLC30A8 (GeneID 169026)	2	3.28	26	inactive
SLC30A8 (GeneID 169026)	3	-0.276	1.03	inactive

Laid out differently: entries from further up
DOLK (GeneID 22845) #1
- G2 robust z-score: -1.32
- G2 cells, % of GMNN control: -6.29
- Outcome: inactive

DOLK (GeneID 22845) #2
- G2 robust z-score: -0.192
- G2 cells, % of GMNN control: 1.61
- Outcome: inactive

DOLK (GeneID 22845) #3
- G2 robust z-score: 1.02
- G2 cells, % of GMNN control: 10.2
- Outcome: inactive
